# Experimental data: PubChem BioAssay AID686943 (Drosophila RNAi Screening Center, 2013)
# Purpose: 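Fly genes whose loss alters ERK activation after insulin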 (primary screen)
# System: Drosophila S2R+ haemocyte-like cells expressing YFP-tagged ERK (Rolled)
# Reagents: long dsRNA against Drosophila genes
# Treatment: insulin stimulation versus unstimulated cells; dose and duration not given
# Measurement: 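Antibody staining for doubly phosphorylated ERK divided by ERK-YFP signal, as plate z-scores, in insulin-treated and untreated cells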
# Scale: replicate 1, z-score of dpERK with insulin and replicate 2, z-score of dpERK with insulin: higher = more active ERK per ERK-YFP after insulin; replicate 1, z-score of dpERK under basal conditions: higher = more basal active ERK per ERK-YFP
# In all, the deposit lists about 23,000 reagents; below is an unselected part of those with a known target gene and a result. 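Extra replicates exist only for a retested subset of genes; insulin dose and duration not given; both raised and lowered dpERK matter.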 The numbers tell different reagents against one gene apart. Further read-outs or replicates are left out here. Not given: the amount of reagent, the time to read-out.
gene,reagent,"replicate 1, z-score of dpERK with insulin","replicate 2, z-score of dpERK with insulin","replicate 1, z-score of dpERK under basal conditions"
SdhAL,1,0.49,0.35,-0.04
Pi3K21B,1,0.53,0.28,-0.15
DEF8,1,-0.64,-0.41,-0.6
Jhbp15,1,0.75,1.43,0.28
alka,1,0.33,0.6,0.67
Ravus,1,-0.38,0.3,0.19
SERCA,1,0.85,0.76,0.27
CG8100,1,0.21,0.23,-0.06
Usp12-46,1,-0.01,-0.4,-0.06
Cht7,1,0.32,1.54,0.19
Cht7,2,0.51,-0.17,0.11
CG8202,1,0.83,-0.09,-0.2
tld,1,0.43,1.09,-1.12
AgmNAT,1,0.31,0.28,0.34
Cul5,1,0.83,0,0.39
Pbgs,1,1.42,0.06,0.47
Dsk,1,-0.51,-0.23,0.31
CG5646,1,0.02,-0.24,0.22
CG10904,1,-0.52,0.31,-0.7
CG32026,1,-0.04,-0.02,-0.22
RabX4,1,0.27,-0.19,0.27
CG17169,1,-0.23,-0.51,-0.43
alpha-Est2,1,-0.29,0.03,-0.49
CG9616,1,-0.29,-1.64,0.15
awd,1,-0.47,-0.07,0.7
Hsp67Ba,1,-0.92,-0.24,-0.81
elfless,1,0.16,0.24,0.63
CG13630,1,-0.41,0.07,-0.66
Tango14,1,0.48,1.39,-0.45
CG32454,1,-0.29,-0.3,-0.15
CG5592,1,0.44,0.69,-1.13
CG7655,1,-0.31,0.12,-0.53
CG4709,1,-0.68,-1.09,-0.19
CG13385,1,-0.1,0.62,0.49
Mp,1,0.92,0.33,-1.02
Mp,2,0.9,0.67,0.36
Mp,3,1.21,1.14,0.34
DCTN3-p24,1,-0.4,-0.08,-0.02
COX7AL,1,-0.18,-1.27,0.75
CR41501,1,0.12,-0.1,-0.03
Arpc1,1,-0.81,-0.71,-1.46
Nep7,1,-0.36,-0.06,-0.36
CG7222,1,0.67,0.17,0.92
CG34265,1,-0.24,-0.12,-0.78
Atat,1,-0.1,-0.08,-0.89
CG14132,1,-0.01,-0.02,0.5
Acp98AB,1,-0.45,-0.07,0.94
path,1,0.89,0.54,-0.13
CG11060,1,0.03,0.18,-0.07
CG32107,1,0.04,-0.01,0.57
ZnT41F,1,0.09,-0.42,0.24
CG8407,1,0.88,-2.67,-1.03
yellow-g,1,0.1,1.2,-2.9
CG12853,1,0.98,0.01,0.31
Cpr76Bc,1,0.17,-0.32,-0.1
CG18417,1,0.34,0.42,-0.8
Cpr11B,1,0.47,0.84,-0.78
